No constants are given. Whether binding was seen depends on the method and setting.
T1: Tailspike protein 2 of bacteriophage CBA120 (bacteriophage CBA120) (UniProt G3M190)
T1 sequence: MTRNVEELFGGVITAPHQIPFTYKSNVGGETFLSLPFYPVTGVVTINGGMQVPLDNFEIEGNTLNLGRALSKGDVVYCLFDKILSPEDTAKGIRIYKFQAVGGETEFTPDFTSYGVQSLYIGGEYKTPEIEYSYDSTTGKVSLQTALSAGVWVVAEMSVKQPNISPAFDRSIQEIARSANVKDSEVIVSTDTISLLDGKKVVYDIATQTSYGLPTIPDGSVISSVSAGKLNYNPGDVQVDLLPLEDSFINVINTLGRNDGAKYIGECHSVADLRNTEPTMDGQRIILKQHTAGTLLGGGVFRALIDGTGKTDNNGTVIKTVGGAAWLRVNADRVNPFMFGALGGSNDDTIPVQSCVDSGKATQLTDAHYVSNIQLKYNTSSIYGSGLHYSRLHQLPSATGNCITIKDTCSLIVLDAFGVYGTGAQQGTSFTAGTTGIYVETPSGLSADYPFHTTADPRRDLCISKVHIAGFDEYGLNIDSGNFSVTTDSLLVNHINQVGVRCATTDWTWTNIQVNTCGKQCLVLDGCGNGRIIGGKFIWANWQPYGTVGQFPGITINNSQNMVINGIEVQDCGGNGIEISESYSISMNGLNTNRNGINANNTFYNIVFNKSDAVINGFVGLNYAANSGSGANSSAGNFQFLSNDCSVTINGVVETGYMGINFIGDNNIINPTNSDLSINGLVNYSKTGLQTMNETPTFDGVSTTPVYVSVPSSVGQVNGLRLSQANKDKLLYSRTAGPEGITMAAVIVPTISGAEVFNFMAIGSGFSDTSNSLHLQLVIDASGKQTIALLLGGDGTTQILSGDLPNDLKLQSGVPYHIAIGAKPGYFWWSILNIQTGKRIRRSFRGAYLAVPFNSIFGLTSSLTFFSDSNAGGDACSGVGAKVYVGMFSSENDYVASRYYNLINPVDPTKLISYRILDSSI

T2: Tailspike protein 3 of bacteriophage CBA120 (bacteriophage CBA120) (UniProt G3M191)
T2 sequence: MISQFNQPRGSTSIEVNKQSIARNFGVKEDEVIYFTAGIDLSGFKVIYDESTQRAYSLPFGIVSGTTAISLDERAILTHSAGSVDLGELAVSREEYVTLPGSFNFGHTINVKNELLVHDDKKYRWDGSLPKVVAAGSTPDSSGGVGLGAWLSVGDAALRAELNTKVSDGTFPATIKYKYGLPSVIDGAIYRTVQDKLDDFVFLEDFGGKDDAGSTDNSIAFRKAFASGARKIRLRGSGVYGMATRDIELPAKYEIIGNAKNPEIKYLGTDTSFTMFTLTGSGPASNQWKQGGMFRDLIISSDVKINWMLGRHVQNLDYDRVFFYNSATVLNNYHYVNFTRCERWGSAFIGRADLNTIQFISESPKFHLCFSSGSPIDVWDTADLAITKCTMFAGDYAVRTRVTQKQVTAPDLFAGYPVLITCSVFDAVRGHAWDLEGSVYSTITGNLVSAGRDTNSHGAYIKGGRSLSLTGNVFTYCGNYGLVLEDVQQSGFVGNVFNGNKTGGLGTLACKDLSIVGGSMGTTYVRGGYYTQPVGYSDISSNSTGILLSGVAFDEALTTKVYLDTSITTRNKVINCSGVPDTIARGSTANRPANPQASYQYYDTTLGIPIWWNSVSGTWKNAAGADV


What was measured:
[1] = target: T1, Tailspike protein 2 of bacteriophage CBA120 (bacteriophage CBA120); test: AUC; sedimentation velocity of single proteins and of mixtures, PBS pH 7.4, 20 °C, absorbance at 280 nm, 30-50 krpm; c(s) by SEDFIT; Kd and koff by Lamm equation modelling with a two-site heterogeneous association model A + B + B = AB + B = ABB (A: TSP4-N335 hexamer, B: partner TSP trimer; two symmetric sites, no cooperativity); both purified
[2] = target: T2, Tailspike protein 3 of bacteriophage CBA120 (bacteriophage CBA120); test: as above

Binder | binding [1] | binding [2]
Tailspike protein 1 of bacteriophage CBA120 (natural protein, Homotrimer by SV (MWcalc of the trimer 248 kDa); also called TSP1) MNEMFSQGGKGSTGILTNKQAVARHFGVKQSEVVYFSVGVDLGGYKVIYDKETQRAYSLPVGIASGTTAVSLSTAAVLVHSAGSVDLGSLAVSREEYVTLPGSFDSGSTLNVKNELLTYTDGKYRWDGILPKTVAPGSTPASTGGVGLGAWISVGDASLRTQLANGDGSLIGIHPQGTLNNVLTVRTPEQYNAVGDGIADDTSKLKEMLSDINNVPETLPDAAAVNSYMEQVAVKIDLTKLYRFTETLYIPPGVSIEIPTSNFFTRECKQGLFYDPVDKNTAAISLMVYRKQPDGSYKLNKDVDYYPTGLDIDNGDAITCARKIDINNLNLITAPGVKVGVKWIGGAGCTTKGLSIGENTGSDITTARLPRVGLLQSASWGSIHENLRILYKTQGAVFIDSNGGAAVNNAYISRLGNTNGELEQAVYKPAGFTEVGDVAVTQFAGSEVKFNSPIIEQASFDFVHAGRDTDSYGLFMVDKPHIESSGGKKKHSFYLINTSSNVTLSGVGLSGQDPDLDSMYFLKNCPETARNVVRGQMPISGVKLVRGTGNYPTLVLDCTNMGSQFQFGEVGDIFYIKDVVGVKADTLYIDPVNGNNYNWGTNGTKPIRELTNIAKICQLFRCKSVYLNAGESVITSNTELPMVVFEGPGSLKANSGSSFLIKAGGTLSLIGLSGISTDGGHMFRVSTVEKVNIHTNCSVNAGAAYVVLSEVQGNIEYRQLFYSVNCSKYIGATAGQTIAGIMVKTATRPTGIDAAPVDGNVSLTYKIIES | no binding (tested: 1.5 μM each) | no binding (tested: 1.5 μM each)
Tailspike protein 3 of bacteriophage CBA120 (natural protein, UniProt G3M191 1-627, looked up, Trimer and hexamer by SV (MWcalc of the trimer 206 kDa); also called TSP3) MISQFNQPRGSTSIEVNKQSIARNFGVKEDEVIYFTAGIDLSGFKVIYDESTQRAYSLPFGIVSGTTAISLDERAILTHSAGSVDLGELAVSREEYVTLPGSFNFGHTINVKNELLVHDDKKYRWDGSLPKVVAAGSTPDSSGGVGLGAWLSVGDAALRAELNTKVSDGTFPATIKYKYGLPSVIDGAIYRTVQDKLDDFVFLEDFGGKDDAGSTDNSIAFRKAFASGARKIRLRGSGVYGMATRDIELPAKYEIIGNAKNPEIKYLGTDTSFTMFTLTGSGPASNQWKQGGMFRDLIISSDVKINWMLGRHVQNLDYDRVFFYNSATVLNNYHYVNFTRCERWGSAFIGRADLNTIQFISESPKFHLCFSSGSPIDVWDTADLAITKCTMFAGDYAVRTRVTQKQVTAPDLFAGYPVLITCSVFDAVRGHAWDLEGSVYSTITGNLVSAGRDTNSHGAYIKGGRSLSLTGNVFTYCGNYGLVLEDVQQSGFVGNVFNGNKTGGLGTLACKDLSIVGGSMGTTYVRGGYYTQPVGYSDISSNSTGILLSGVAFDEALTTKVYLDTSITTRNKVINCSGVPDTIARGSTANRPANPQASYQYYDTTLGIPIWWNSVSGTWKNAAGADV | no binding (tested: 1.5 μM each) | –
